This is an account of results in patent US20020115167A1.

This assay has as its target Drosophila PAR-1 (dPAR-1), the Dishevelled-associated kinase (Drosophila). The assay can be described thus: GST pull-down from Clone-8 cell lysates with or without Wingless stimulation.

No constants are given. Whether binding was seen depends on the method and setting. Binding seen in cells or lysates may run through a third protein. Some entries that bind do so weakly or less than the wild type. Sequences can lack the tags named with a protein.

With QRLQVRKKPQRRKKRAPSMSRTSSYSSITDSTMSLN (peptide, not shown: a dimerising Fc or GST) [GST-DM5 (GST fusion of the 36 amino acid segment DM5 of Dsh)], the binding result is listed as “binds”.
